In patent US10012659B2, “Methods for diagnosing iron-related pathologies” (priority 2014, dated 2018):
At least one structure is not confirmed: it was looked up by name or label, or the drawing left a doubt. Marks after values point to notes of the source that are not given here.

Test system: normal pooled plasma
Assay: Effect of FeCl3 and deferoxamine chelation on reaction time (R), thrombelastograph
Format: biochemical, human
Details: for reaction time: FeCl3 10 μM, median (1st, 3rd quartile)
Method: Thrombelastograph-Based Analyses. All thrombelastograph-based experiments were performed at the University of Arizona. Frozen, citrate anticoagulated normal pooled plasma was obtained from a commercial vendor (George King Bio-Medical, Overland Park, Kans., USA) for use in subsequently described experimentation. […] Deferoxamine was obtained from a commercial vendor (Cayman Chemical Company, Ann Arbor, Mich., USA). […] Then, 336 μl of either plasma mixture was placed in a disposable cup in a computer-controlled thrombelastograph® hemostasis system (Model 5000, Haemoscope Corp., Niles, Ill., USA). […] Thus, there were four conditions: no deferoxamine, no FeCl3, (Control), deferoxamine, no FeCl3 (deferoxamine); no deferoxamine, FeCl3 (FeCl3); and finally, FeCl3 followed by deferoxamine (FeCl3+Deferoxamine). There were six replicates per condition. Thereafter, 20 μl of 200 mM CaCl2 was added as the last step to initiate clotting. Data were collected at 37° C. until R was recorded. […] There were six replicates per condition. An aliquot of 340 μl of each of the four conditions was placed into thrombelastographic cups and 20 μl of 200 mM CaCl2 was added to initiate clotting. Data were collected at 37° C. until R was recorded. As R values varied between experiments, and a fixed number of channels were available (n=4), plasma was incubated at room temperature between 45-60 min prior to initiation of coagulation. The third series of experiments was designed to decrease incubation time by increasing temperature and deferoxamine concentration without compromising the ability to detect iron-mediated changes in R values. […] The mixtures were mixed with the disposable pin, and allowed to incubate for 15 min at 37° C. Clotting was initiated by addition of 20 μl of 200 mM CaCl2 and data collected at 37° C. until R was recorded. A total of six replicates of the four experimental conditions were analyzed.

With `CC(=O)N(O)CCCCCNC(=O)CCC(=O)N(O)CCCCCNC(=O)CCC(=O)N(O)CCCCCN` [Deferoxamine, deferoxamine] the reaction time (Fifteen min incubation at 37° C., deferoxamine 2.78 mM) was 16.2 (13.1, 19.7) min, the reaction time (Forty-five to sixty min incubation at room temperature, deferoxamine 1 mM) was 17.4 (16.2, 18.6) min and the reaction time (Three min incubation at room temperature, deferoxamine 1 mM) was 11.6 (11.2, 12.1)* min. For the same compound, the “change in R values compared to control plasma values” (deferoxamine 1 mM for 3 min, no FeCl3) was “small but significant decrease”.
